Measured values taken from paper PMC10571979.
No constants are given. Whether binding was seen depends on the method and setting. In cells and extracts the contact can be indirect. Some entries that bind do so weakly or less than the wild type. For some assays here: Sequences can lack the tags named with a protein.

Protein sequences, listed by entry. Tags and fused reporters are not part of them.
UniProt Q07157: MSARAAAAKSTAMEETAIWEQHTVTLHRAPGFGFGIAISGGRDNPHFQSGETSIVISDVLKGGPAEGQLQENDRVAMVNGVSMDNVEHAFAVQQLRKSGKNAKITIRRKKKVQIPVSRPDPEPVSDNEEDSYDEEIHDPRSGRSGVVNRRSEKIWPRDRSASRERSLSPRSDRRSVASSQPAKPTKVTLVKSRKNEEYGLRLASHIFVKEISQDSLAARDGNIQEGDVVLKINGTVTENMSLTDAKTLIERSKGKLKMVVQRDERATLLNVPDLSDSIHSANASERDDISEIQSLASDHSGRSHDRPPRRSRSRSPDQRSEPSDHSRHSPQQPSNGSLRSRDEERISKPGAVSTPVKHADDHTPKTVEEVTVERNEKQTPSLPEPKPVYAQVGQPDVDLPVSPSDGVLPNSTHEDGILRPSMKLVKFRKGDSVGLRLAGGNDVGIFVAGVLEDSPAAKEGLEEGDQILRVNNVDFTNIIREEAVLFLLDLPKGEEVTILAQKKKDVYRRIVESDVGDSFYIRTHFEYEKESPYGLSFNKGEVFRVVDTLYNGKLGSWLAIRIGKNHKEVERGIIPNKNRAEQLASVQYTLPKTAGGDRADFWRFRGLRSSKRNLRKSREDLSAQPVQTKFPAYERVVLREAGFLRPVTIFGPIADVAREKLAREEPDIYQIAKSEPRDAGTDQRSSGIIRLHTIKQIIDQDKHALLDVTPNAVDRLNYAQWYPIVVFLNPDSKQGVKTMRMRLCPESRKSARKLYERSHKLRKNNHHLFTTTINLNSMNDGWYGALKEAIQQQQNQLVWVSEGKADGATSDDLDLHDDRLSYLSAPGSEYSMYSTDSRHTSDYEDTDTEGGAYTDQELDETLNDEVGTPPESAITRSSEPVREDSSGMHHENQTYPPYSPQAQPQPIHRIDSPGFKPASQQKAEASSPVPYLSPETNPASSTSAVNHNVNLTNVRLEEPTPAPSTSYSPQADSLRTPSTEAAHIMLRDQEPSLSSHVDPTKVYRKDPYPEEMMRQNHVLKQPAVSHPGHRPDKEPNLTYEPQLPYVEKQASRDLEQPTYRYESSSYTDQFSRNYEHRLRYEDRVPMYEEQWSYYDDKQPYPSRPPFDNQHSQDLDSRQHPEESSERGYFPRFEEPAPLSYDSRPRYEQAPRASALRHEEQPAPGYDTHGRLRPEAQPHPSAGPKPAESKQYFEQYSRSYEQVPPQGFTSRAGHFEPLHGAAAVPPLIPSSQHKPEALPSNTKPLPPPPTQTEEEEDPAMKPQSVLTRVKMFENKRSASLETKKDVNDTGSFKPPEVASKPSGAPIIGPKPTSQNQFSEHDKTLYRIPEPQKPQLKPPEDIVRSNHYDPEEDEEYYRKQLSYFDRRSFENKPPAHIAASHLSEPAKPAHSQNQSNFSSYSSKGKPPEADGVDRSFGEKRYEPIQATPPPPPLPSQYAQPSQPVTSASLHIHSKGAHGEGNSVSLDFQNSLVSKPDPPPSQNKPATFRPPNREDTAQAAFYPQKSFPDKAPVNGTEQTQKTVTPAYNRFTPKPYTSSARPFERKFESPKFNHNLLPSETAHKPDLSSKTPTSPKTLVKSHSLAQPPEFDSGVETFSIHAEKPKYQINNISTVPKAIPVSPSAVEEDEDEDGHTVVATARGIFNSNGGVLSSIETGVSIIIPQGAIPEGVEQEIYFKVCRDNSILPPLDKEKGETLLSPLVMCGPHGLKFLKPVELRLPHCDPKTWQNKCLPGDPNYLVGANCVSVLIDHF

T1: FLAG-CLDN5 (FLAG-tagged human full-length CLDN5) (human) (UniProt O00501)
T1 sequence: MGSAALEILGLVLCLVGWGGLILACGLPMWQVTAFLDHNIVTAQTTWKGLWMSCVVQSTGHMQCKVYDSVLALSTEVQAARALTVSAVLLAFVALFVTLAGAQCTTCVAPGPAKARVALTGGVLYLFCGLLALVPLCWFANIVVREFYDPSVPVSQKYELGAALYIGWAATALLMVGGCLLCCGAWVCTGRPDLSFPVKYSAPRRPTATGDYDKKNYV

T2: disheveled-1 (DVL1), endogenous in bovine retinal endothelial cells (bovine (endogenous in BRECs)) (UniProt F1N6M9)
T2 sequence: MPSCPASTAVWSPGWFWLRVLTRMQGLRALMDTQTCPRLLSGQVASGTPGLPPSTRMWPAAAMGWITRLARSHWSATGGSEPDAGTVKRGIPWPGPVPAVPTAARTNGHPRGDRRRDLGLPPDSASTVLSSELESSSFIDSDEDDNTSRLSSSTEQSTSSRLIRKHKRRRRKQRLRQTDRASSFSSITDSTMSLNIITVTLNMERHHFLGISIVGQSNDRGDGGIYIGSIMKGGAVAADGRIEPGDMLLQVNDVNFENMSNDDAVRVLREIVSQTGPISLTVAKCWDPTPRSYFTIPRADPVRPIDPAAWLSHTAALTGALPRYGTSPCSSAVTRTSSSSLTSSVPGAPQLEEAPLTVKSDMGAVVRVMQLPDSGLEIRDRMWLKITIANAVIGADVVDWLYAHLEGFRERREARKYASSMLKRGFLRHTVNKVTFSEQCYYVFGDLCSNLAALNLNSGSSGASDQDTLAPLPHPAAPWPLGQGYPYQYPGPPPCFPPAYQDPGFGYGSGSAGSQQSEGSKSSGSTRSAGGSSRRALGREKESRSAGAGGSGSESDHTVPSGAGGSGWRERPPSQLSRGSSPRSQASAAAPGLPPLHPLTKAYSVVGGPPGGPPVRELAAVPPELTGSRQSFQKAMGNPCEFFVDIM

B1: claudin-5 (CLDN5), endogenous in bovine retinal endothelial cells (protein, UniProt Q2HJ22 1-218)
chain: MGSAALEILGLVLCLVGWVGLILACGLPMWQVTAFLDHNIVTAQTTWKGLWMSCVVQSTGHMQCKVYDSVLALSPEVQAARALTVGAVLLALVALFVTLAGAQCTTCVAPGPAKARVALTGGALYALCGLLALVPLCWFANIVVREFYDPTVPMSQKYELGAALYIGWAASALLMCGGGLVCCGAWVCTGRPDFSFPVKYSASRRPTATGDYDKKNYV
B2: HA-DVL1-WT (human full-length DVL1) (protein, UniProt O14640 1-695)
chain: MAETKIIYHMDEEETPYLVKLPVAPERVTLADFKNVLSNRPVHAYKFFFKSMDQDFGVVKEEIFDDNAKLPCFNGRVVSWLVLAEGAHSDAGSQGTDSHTDLPPPLERTGGIGDSRPPSFHPNVASSRDGMDNETGTESMVSHRRERARRRNREEAARTNGHPRGDRRRDVGLPPDSASTALSSELESSSFVDSDEDGSTSRLSSSTEQSTSSRLIRKHKRRRRKQRLRQADRASSFSSITDSTMSLNIVTVTLNMERHHFLGISIVGQSNDRGDGGIYIGSIMKGGAVAADGRIEPGDMLLQVNDVNFENMSNDDAVRVLREIVSQTGPISLTVAKCWDPTPRSYFTVPRADPVRPIDPAAWLSHTAALTGALPRYGTSPCSSAVTRTSSSSLTSSVPGAPQLEEAPLTVKSDMSAVVRVMQLPDSGLEIRDRMWLKITIANAVIGADVVDWLYTHVEGFKERREARKYASSLLKHGFLRHTVNKITFSEQCYYVFGDLCSNLATLNLNSGSSGTSDQDTLAPLPHPAAPWPLGQGYPYQYPGPPPCFPPAYQDPGFSYGSGSTGSQQSEGSKSSGSTRSSRRAPGREKERRAAGAGGSGSESDHTAPSGVGSSWRERPAGQLSRGSSPRSQASATAPGLPPPHPTTKAYTVVGGPPGGPPVRELAAVPPELTGSRQSFQKAMGNPCEFFVDIM

Tests used:
[1] = target: T1, FLAG-CLDN5 (FLAG-tagged human full-length CLDN5) (human); experiment: co-IP; HEK-293 co-transfected with FLAG-CLDN5 or FLAG-CLDN5-ΔPDZBM and HA-DVL1 or HA-DVL1-ΔC7; IP with FLAG antibody, blot for FLAG, HA or endogenous ZO-1; 2% NP-40 buffer
[2] = target: T2, disheveled-1 (DVL1), endogenous in bovine retinal endothelial cells (bovine (endogenous in BRECs)); experiment: co-IP; endogenous proteins in BREC lysate (co-IP buffer with 2% NP-40); IP with the Pan-DVL antibody (detects DVL1 and DVL3), blot for CLDN5 and ZO-1; monolayers treated with vehicle, norrin 40 ng/mL, VEGF 50 ng/mL or both for 72 h
[3] = target: T1, FLAG-CLDN5 (FLAG-tagged human full-length CLDN5) (human); experiment: co-IP; competition: HEK-293 co-transfected with FLAG-CLDN5, HA-DVL1-WT and increasing doses of HA-DVL1-CT plasmid; IP with FLAG antibody, blot for HA; 2% NP-40 buffer
GFP-ZO-1 = GFP-ZO-1 (UniProt Q07157); experiment: co-IP; HEK-293 co-transfected with GFP-ZO-1 and HA-DVL1-WT, HA-DVL1-WT plus HA-DVL1-CT, HA-DVL1-ΔC7, HA-DVL3-WT or HA-DVL3-ΔC7; IP of ZO-1 with GFP antibody, blot for HA; 2% NP-40 buffer

Molecule | binding [1] | binding [2] | binding [3] | binding (GFP-ZO-1)
ZO-1, endogenous in HEK-293 cells (from UniProt Q07157 1-1748) | binds |  |  | 
B1 |  | binds |  | 
B2 | binds |  | binds | binds
